According to patent publication US6790540B2, “Organic electroluminescent element material and organic electroluminescent element” (Nippon Steel Chemical Co., Ltd., priority 2000, dated 2004):

Experiments:
[1] = Organic EL element, luminescent layer by vacuum deposition (ITO/TPD/compound/LiF/Al); conditions: for turn-on voltage: EL element as in Example 8, compound as luminescent material; for luminance: at the turn-on voltage
[2] = Organic EL element, luminescent layer applied by spin coating; conditions: direct current voltage of 5 V, EL elements as in Example 23, Table 3
[3] = EL elements as in Example 8, Table 2

For `Cc1ccc(S(=O)(=O)[N-]c2ccccc2-c2nc3ccccc3o2)cc1.Cc1ccc(S(=O)(=O)[N-]c2ccccc2-c2nc3ccccc3o2)cc1.[Zn+2]` [Compound 2a, zinc bis-2-(2-(p-toluenesulfonamido)phenyl)benzoxazolate], the “colour of emitted light” value ([1]; EL element as in Example 8) was “blue”, the “drive current density at a luminance of 1,000 cd/m^2” value (“drive current density at a luminance” for short) ([1]; EL element as in Example 8) was 60 A/cm^2 and the turn-on voltage [1] was 5.5 V. For the same molecule, the luminance ([1]; EL element as in Example 8) was 6,500 cd/m^2.
With `Cc1ccc(S(=O)(=O)[N-]c2ccccc2-c2ccccn2)cc1.Cc1ccc(S(=O)(=O)[N-]c2ccccc2-c2ccccn2)cc1.[Zn+2]` [Compound 3, zinc bis-2-(2-(p-toluenesulfonamido)phenyl)pyridinate] the “colour of emitted light” value ([1]; EL element as in Example 8) was “blue”, the “drive current density at a luminance” value ([1]; EL element as in Example 8) was 65 A/cm^2 and the turn-on voltage [1] was 5.5 V. The luminance ([1]; EL element as in Example 8) was 6,800 cd/m^2.
For `CCCCCCCCS(=O)(=O)[N-]c1ccccc1-c1nc2ccccc2o1.CCCCCCCCS(=O)(=O)[N-]c1ccccc1-c1nc2ccccc2o1.[Zn+2]` [Compound 6a, zinc bis-2-(2-(n-octylsulfonamido)phenyl)benzoxazolate], the “Turn-on voltage for electroluminescence” value [1, 3] was 5.8 V, the luminance [1, 3] was 4,900 cd/m^2 and the luminance [2] was 120 cd/m^2.
In the case of `c1cnc2c([O][Al]([O]c3cccc4cccnc34)[O]c3cccc4cccnc34)cccc2c1` [Alq3, aluminum-8-hydroxyquinoline complex], the “colour of emitted light” value ([1]; EL element as in Example 8) was “green”, the “drive current density at a luminance” value ([1]; EL element as in Example 8) was 50 A/cm^2 and the turn-on voltage [1] was 3.5 V. The luminance ([1]; EL element as in Example 8) was 18,000 cd/m^2.
Molecule `CCCCCCCCS(=O)(=O)[N-]c1cccc2cccnc12.CCCCCCCCS(=O)(=O)[N-]c1cccc2cccnc12.[Zn+2]` [Compound B, zinc bis-8-(n-octylsulfonamido)quinolinate] has a luminance [2] of 210 cd/m^2.
